Results taken from the supplement of paper PMC3334620.
Over roughly 33,000 sequences, “E-score (-0.5 to 0.5)” has its median near -0.015; the highest 2% begin near 0.3. The list shows a part of the results.

molecular target: T1, Abf1 (UniProt P14164); assay: PBM E-score (8-mer binding enrichment) (E-score (-0.5 to 0.5)); higher = stronger / more preferred TF binding; conditions: protein concentration: 200 nM; construct: GST-full length
T1 sequence: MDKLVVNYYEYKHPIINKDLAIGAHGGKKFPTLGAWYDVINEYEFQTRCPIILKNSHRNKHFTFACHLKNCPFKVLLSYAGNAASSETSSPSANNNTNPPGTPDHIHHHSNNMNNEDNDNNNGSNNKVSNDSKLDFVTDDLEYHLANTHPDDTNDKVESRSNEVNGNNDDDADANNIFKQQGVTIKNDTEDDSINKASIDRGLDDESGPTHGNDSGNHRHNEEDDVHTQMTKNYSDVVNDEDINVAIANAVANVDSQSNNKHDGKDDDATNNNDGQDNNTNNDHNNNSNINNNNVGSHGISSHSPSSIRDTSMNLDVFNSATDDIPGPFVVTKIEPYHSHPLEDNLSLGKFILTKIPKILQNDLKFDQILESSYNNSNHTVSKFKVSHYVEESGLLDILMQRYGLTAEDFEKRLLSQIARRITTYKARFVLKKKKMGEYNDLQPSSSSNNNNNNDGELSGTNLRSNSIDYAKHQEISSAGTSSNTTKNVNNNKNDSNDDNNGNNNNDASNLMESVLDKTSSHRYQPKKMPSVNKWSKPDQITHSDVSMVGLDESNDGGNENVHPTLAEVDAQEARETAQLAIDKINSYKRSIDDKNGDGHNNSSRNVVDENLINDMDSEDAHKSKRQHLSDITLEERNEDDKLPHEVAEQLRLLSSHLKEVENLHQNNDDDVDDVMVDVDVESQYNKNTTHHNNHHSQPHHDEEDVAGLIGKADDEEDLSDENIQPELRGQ
Method in brief: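 Yeast transcription factors, full-length or as DNA-binding domains, were expressed with a GST tag using PURExpress in vitro transcription/translation. At about 100-200 nM they were applied to universal all-10-mer Agilent arrays, double-stranded by primer extension on fresh or once-stripped slides. Fluorescent anti-GST detected bound protein, and masliner normalised the scans. E-scores for ungapped eight-base words, pooled with reverse complements, came from the Universal PBM Analysis Suite.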

Sequence | PBM E-score
AACAAGCT | -0.0113
CAAATTCA | -0.107
AATGTCCA | 0.00471
CTAGCTAC | -0.0946
ATGGCAAT | 0.0787
GACCGGGA | -0.0895
GATTTACC | 0.137
GTAATTGA | 0.157
CATAACGC | 0.129
CATAGCGC | 0.057
AGATATCA | 0.3
TGGTATAA | 0.0711
GAACTTCC | -0.12
CGTTTGAG | 0.124
CCACACGA | 0.0434
AAGCTCAG | -0.054
TAAGCTCA | 0.0284
AAACGAAA | 0.159
GATGTGAA | 0.112
TAGGAACA | -0.116
AACGCGTT | 0.201
GTTCCCCA | -0.043
AAACTTCC | -0.112
GATATACC | 0.34
AGGAGGGC | -0.189

Looked up above:
AGATATCA – PBM E-score: 0.3
AACGCGTT – PBM E-score: 0.201

Further results

Sequence | PBM E-score
CTGGGAGC | -0.102
CCATTCCA | -0.243
CCATACCC | -0.264
CGGAGACA | 0.143
CTGTGGGC | -0.0512
GGCACCGA | -0.186
GCGAAATA | -0.0511
AAAACATC | 0.0849
CAACAGAG | -0.177
AACGCGTC | 0.0437
GAAGCAAC | -0.0375
CGCGGTGA | 0.115
AATCGCGC | 0.211
AAAATTCG | 0.175
ACCCTTAT | -0.036
CCCCCGGA | -0.3
ATTTTTCA | 0.246
AGAAGAGA | -0.156
AAGAAGTC | -0.0736
CATGCGCG | 0.0124
ATCGATCC | -0.276
CTACGAGA | 0.113
ATGCTTGG | -0.127
TAACCGCA | 0.0879
CGATCAAA | 0.0235

Sequence | PBM E-score
AGGAATTA | 0.0193
CCTCCCCG | -0.241
CTTCTGTA | 0.0547
CAGTTTCG | -0.0369
GGTCCGAC | -0.165
AATGGAGC | -0.149
GGGTTAAA | -0.178
AACTTCCC | 0.0636
GCGACCGA | 0.148
CGAGCAGA | -0.182
CGAGAAAG | -0.134
AAGTTTGC | -0.0502
ATCATGGA | -0.0809
GCCGCGGC | -0.0383
AACGCACA | 0.0384
CATAGCGG | -0.167
ATTTCCTC | 0.0443
AACTCGTA | 0.255
CGCTCTGC | -0.193
CGGGCCCC | -0.255
GGTGACAC | 0.238
AGGCGCCA | -0.0495
CCGAGGGA | -0.252
CCAGACCC | -0.235
ACCAGATG | -0.00648

A different layout for some results above:
Sequence	PBM E-score
GGTCCGAC	-0.165
AATGGAGC	-0.149
GGGTTAAA	-0.178
AACTTCCC	0.0636
GCGACCGA	0.148
CGAGCAGA	-0.182

(listing goes on)

Sequence | PBM E-score
CAGATTCG | -0.101
TCGCACGA | 0.317
GGGACTCA | -0.301
TCAAGACA | 0.0152
AGTTTGGC | 0.035
AATAAAAG | -0.012
CCAAGTCA | -0.0923
CCTGCTCC | -0.00159
AATCATGA | 0.274
AAAAACTT | -0.051
CAAACAGG | 0.107
CAGCGGGC | -0.13
CTCGAAAC | 0.163
AATACAAG | 0.00093
CAGCTCCA | -0.238
CCGCCCCC | -0.448
AAGCAAAA | 0.0973
CACACGGG | 0.0515
GCTTCATA | -0.105
CAAATACA | 0.0656
TAGAGAAA | -0.0221
GCGATAGC | 0.013
CTAATTTC | 0.174
CTGTGGGA | -0.215
AAGCAGGC | -0.303

Sequence | PBM E-score
CTGTTCCA | -0.114
GACTGTTA | 0.0803
TCTGCACA | -0.0362
CCGAGTTA | 0.0322
GACGGCCC | 0.072
ACCCGGCT | -0.0353
TCGGCACA | -0.116
ATCATCCG | 0.276
AGGAGTCC | -0.293
ATGGGTGC | -0.175
CTTCGTGA | 0.317
AGCACACA | -0.119
CTGCACAA | -0.0813
CAACCGAC | 0.19
AAACACTC | -0.0792
AGGATCTC | -0.0704
GTCTCCCA | -0.187
ACGCTCTG | -0.0343
CCACCATA | -0.177
ATTTGATG | 0.023
ACGTTAAC | 0.19
CGAAGATA | 0.19
ACATTCAC | -0.0436
CCTGCGCG | -0.00703
CCGCCTCA | -0.15

Sequence | PBM E-score
CATCCTTA | 0.0417
AGAAGGGG | -0.319
GGCCGTCA | 0.0311
GAAATCTC | 0.00946
CTCTTGGA | -0.0334
ATTGACTA | -0.0394
CCAGGGAG | -0.228
CCTTCTCG | -0.245
CAGAGAGG | -0.254
GGAGTGAC | 0.333
GTGCACGA | 0.187
ATGATATG | 0.367
CACCGCTC | -0.0442
ACTTTGAA | 0.00486
GTCGAACA | 0.166
CAGTAGTC | -0.00363
ACTTAGCG | 0.172
AGGCAAAC | -0.23
ATAAGGGC | -0.0744
ATCACCAC | 0.356
AGATGAGA | 0.138
CTGATATC | 0.0641
AATCTAAA | -0.0431
ACAGAACT | 0.118
AACGATGG | -0.0611

Sequence | PBM E-score
ACCCTGAT | -0.059
ATTTGACC | 0.0706
ACACAGTA | 0.0919
AAGTCTAG | -0.134
ACCATGAC | 0.15
GCGGAAAA | -0.0831
AAGACAAC | 0.0616
GCAAGGAC | -0.0807
GCACCTGA | 0.137
CGTACGGC | 0.396
ATATAACG | 0.249
CAATATAA | 0.205
TGCGAGCA | -0.0529
CGTGTAGA | 0.212
CACGTCAC | 0.368
GGGATCCA | -0.048
CCCGAGAA | -0.106
ATTGAACA | 0.0816
ATACCCAG | -0.179
AGGTGACG | 0.0988
AAGAGTCG | -0.025
GGTGACTA | 0.149
